# According to PubChem BioAssay (EPA / NIEHS):
# This list was built around the results that the source calls inconclusive (neither active nor inactive); the mix of calls is not that of the screen. Potencies beside an inconclusive call are fits to weak or partial responses and may not hold up. Calls of active or inactive are those of the source. Rule for the calls: active = hit-call score of the fitted dose curve at least 0.9, where 1 is the maximum; inconclusive = response in the unintended direction; inactive = score below 0.9.
# Test: ACEA_ER_AUC_viability: ACEA Biosciences xCELLigence Real-Time Cell Analysis on Estrogen Receptor Agonism for Viability (AID 2283782);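 note: continuous compound exposure with impedance area under curve over 80 h; hit means loss of impedance signal meaning reduced cell growth or viability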
# Summary of the method: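 T-47D human breast cells in phenol red-free RPMI1640 with 10% charcoal-stripped FBS were dosed with an 8-point 1:4 dilution series from 100 uM top final concentration, in duplicate. Impedance-based growth was followed for 80 h; AUC analysed versus DMSO.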
SMILES,AC50,outcome
CCCOc1sc(C(=O)N2CCC(c3cc(CN)ccc3F)CC2)c(C)c1Br,active: 5.11 µM,
CCCc1ccccc1,,inactive
C=C(C#N)C(=O)OCC,active: 78.9 µM,
FC(F)(F)C(F)(F)C(F)(F)C(F)(F)C(F)(F)C(F)(F)CC[Si](Cl)(Cl)Cl,,inactive
CC1(C)[C@H]2CC[C@]1(C)[C@H](O)C2,,inactive
CC(C)(C)c1cccc(C(C)(C)C)c1O,,inactive
C=CC(=O)OCC(F)(F)C(F)(F)C(F)(F)C(F)(F)C(F)(F)C(F)(F)C(F)(F)F,,inactive
NC(=O)C(F)(F)C(F)(F)C(F)(F)C(F)(F)C(N)=O,inconclusive: 17.5 µM,
C=C(C)C(=O)OCCC(F)(F)C(F)(F)C(F)(F)C(F)(F)C(F)(C(F)(F)F)C(F)(F)F,inconclusive: 0.0183 µM,
N#CCN(CC#N)CCN(CC#N)CC#N,,inactive
CCCC(C)=O,,inactive
NS(=O)(=O)C(F)(F)C(F)(F)C(F)(F)C(F)(F)C(F)(F)C(F)(F)F,inconclusive: 22.3 µM,
Oc1c(Cl)cc(Cl)c(Cl)c1Cc1c(O)c(Cl)cc(Cl)c1Cl,active: 5.27 µM,
C=CC(F)(F)C(F)(F)C(F)(F)C(F)(F)C(F)(F)C(F)(F)C(F)(F)C(F)(F)F,inconclusive: 0.0465 µM,
C[Si](Cl)(Cl)CCC(F)(F)C(F)(F)C(F)(F)C(F)(F)C(F)(F)C(F)(F)F,inconclusive: 0.00229 µM,
Cc1ccc(Cl)cc1,,inactive
COc1cccc2c1C(=O)c1c(O)c3c(c(O)c1C2=O)C[C@@](O)(C(=O)CO)C[C@@H]3O[C@H]1C[C@H](N)[C@H](O)[C@H](C)O1,,inactive
CC(C)CC(C)O (stereo not given),inconclusive: 50 µM,
CCn1cc(C(=O)O)c(=O)c2ccc(C)nc21,inconclusive: 27 µM,
COCCC(=O)OC,,inactive
Cc1ccc([N+](=O)[O-])cc1N,inconclusive: 50 µM,
O=Cc1ccccc1S(=O)(=O)O,inconclusive: 0.00976 µM,
NC(=O)C(F)(F)C(F)(F)C(F)(F)C(F)F,,inactive
COc1ccc(N)c([N+](=O)[O-])c1,,inactive
CCCCC(CC)COC(=O)CCCCC(=O)OCC(CC)CCCC (stereo not given),inconclusive: 50 µM,
O=C(Cl)c1c(Cl)c(Cl)c(C(=O)Cl)c(Cl)c1Cl,,inactive
N#CCCCC(C#N)CCC#N (stereo not given),inconclusive: 0.15 µM,
CCCOCCO,,inactive

# 14 compounds already listed, ordered by formula weight, descending:
SMILES,AC50,outcome
COc1cccc2c1C(=O)c1c(O)c3c(c(O)c1C2=O)C[C@@](O)(C(=O)CO)C[C@@H]3O[C@H]1C[C@H](N)[C@H](O)[C@H](C)O1,,inactive
CCCOc1sc(C(=O)N2CCC(c3cc(CN)ccc3F)CC2)c(C)c1Br,active: 5.11 µM,
C[Si](Cl)(Cl)CCC(F)(F)C(F)(F)C(F)(F)C(F)(F)C(F)(F)C(F)(F)F,inconclusive: 0.00229 µM,
NS(=O)(=O)C(F)(F)C(F)(F)C(F)(F)C(F)(F)C(F)(F)C(F)(F)F,inconclusive: 22.3 µM,
CCCCC(CC)COC(=O)CCCCC(=O)OCC(CC)CCCC (stereo not given),inconclusive: 50 µM,
O=C(Cl)c1c(Cl)c(Cl)c(C(=O)Cl)c(Cl)c1Cl,,inactive
CCn1cc(C(=O)O)c(=O)c2ccc(C)nc21,inconclusive: 27 µM,
CC(C)(C)c1cccc(C(C)(C)C)c1O,,inactive
O=Cc1ccccc1S(=O)(=O)O,inconclusive: 0.00976 µM,
N#CCCCC(C#N)CCC#N (stereo not given),inconclusive: 0.15 µM,
Cc1ccc(Cl)cc1,,inactive
C=C(C#N)C(=O)OCC,active: 78.9 µM,
COCCC(=O)OC,,inactive
CCCC(C)=O,,inactive

# Further entries:

SMILES,AC50,outcome
CC=Cc1ccc(O)c(OC)c1,inconclusive: 50 µM,
COC(OC)(C(=O)c1ccccc1)c1ccccc1,active: 64 µM,
CCCCCC1CCC(=O)O1 (stereo not given),,inactive
C/C=C/c1ccc(OC)cc1,,inactive
CCCCNC(=S)NCCCC,inconclusive: 50 µM,
CC(O)CN(CCN(CC(C)O)CC(C)O)CC(C)O (stereo not given),inconclusive: 50 µM,
FC(F)(F)C(F)(F)C(F)(F)C(F)(F)C(F)(F)C(F)(F)C(F)(F)C(F)(F)F,inconclusive: 0.0104 µM,
CC(C)=CCC/C(C)=C/COC=O,,inactive
c1coc(CNc2ncnc3nc[nH]c23)c1,inconclusive: 90.8 µM,
CC(C)(C)CC(C)(C)c1ccc(O)c(-n2nc3ccccc3n2)c1,active: 21.6 µM,
C=CCc1ccc(O)c(OC)c1,inconclusive: 12 µM,
CCCCN(CCCC)CCCC,inconclusive: 16.8 µM,
COC(=O)OC,inconclusive: 50 µM,
CCc1ccc(CCOc2ccc(CC3SC(=O)NC3=O)cc2)nc1 (stereo not given),,inactive
Nc1nc2ccc([N+](=O)[O-])cc2s1,active: 50 µM,
CSc1nc(NC2CC2)nc(NC(C)(C)C)n1,,inactive
FC(F)(F)C(F)(F)C(F)(F)N(C(F)(F)C(F)(F)C(F)(F)F)C(F)(F)C(F)(F)C(F)(F)F,inconclusive: 0.00686 µM,
O=[N+]([O-])c1ccc(Nc2ccc(Nc3ccccc3)c(S(=O)(=O)O)c2)c([N+](=O)[O-])c1,inconclusive: 9.92 µM,
O=C1NC(=O)C2CC=CCC12 (stereo not given),,inactive
Brc1cc(Br)cc(Br)c1,,inactive
O=c1cc[nH]cc1,,inactive
CC(C)CO,,inactive
OC1OC[C@@H](O)[C@H](O)[C@H]1O (stereo not given in full),inconclusive: 50 µM,
Cc1cc(=O)[nH]c(C(C)C)n1,,inactive
Clc1nc(Cl)c(Cl)c(Cl)c1Cl,active: 92 µM,
OCC(F)(F)C(F)(F)C(F)(F)CO,,inactive
NC(=O)N(O)[C@@H]1COc2cc(OCc3ccccc3)ccc21,inconclusive: 50 µM,
